From patent publication US20160022556A1, “1,5-ANHYDRO-D-GLUCITOL-CONTAINING COLLAGEN PRODUCTION ACCELERATOR” (NATIONAL UNIVERSITY CORPORATION UNIVERSITY OF TOYOMA, priority 2013, published 2016)

Test system: normal human fibroblasts
Assay: Type I collagen synthesis of normal human fibroblasts (ELISA of culture supernatant; protein by BCA method)
Format: cell-based
Settings: 24-hour culture, n = 6, untreated control 9.38 ± 0.21
Description: The action of 1,5-AG on the synthesis of type I collagen of dermal fibroblasts is evaluated. Specifically, normal human fibroblasts were spread on a 96-well microplate using Dulbecco's modified eagle medium (DMEM) containing 0.5% fetal bovine serum (FBS). The fibroblasts were cultured at 37° C. for 24 hours, and thereafter the medium was exchanged with a 0.5% FBS-containing DMEM containing a given concentration of samples. As a positive control (P.C.), the same treatment was carried out with magnesium ascorbyl phosphate. After the 24-hour culture in the sample-containing medium, the culture supernatant was collected and subjected to ELISA. Also, the amount of protein was measured in accordance with bicinchoninic acid (BCA) method with PIERCE (manufactured by Pierce Biotechnology Inc.).
The culture supernatant and the collagen solutions for calibration curve were each dispensed in each well of high-adsorbent ELISA plate, and allowed to coat at 4° C. over one day and night. Thereafter, the coated plate was blocked at 37° C. for 1 hour with a 1% bovine serum albumin (BSA) solution. […] Next, 0.3 mg/mL of phosphate-citrate buffer (0.1 M, pH 4.0) containing 2,2′-azinobis(3-ethylbenzothiazoline-6-sulfonic acid)diammonium salt (ABTS) and a 0.03% hydrogen peroxide was added to each well and allowed to react for 20 minutes, and the absorbance of the reaction mixture was measured at 405 nm with a microplate reader.
The amount of the collagen in the culture supernatant was calculated from the calibration curve prepared from commercially available collagen. By dividing the amount of collagen in the medium by the amount of proteins in all the cells, the amount of collagen synthesized per unit protein amount was calculated. The amount of collagen synthesized at each concentration was subjected to a significance test using a Student-t test, and a difference with an untreated control was evaluated.

OC[C@H]1OC[C@H](O)[C@@H](O)[C@@H]1O [1,5-AG, 1,5-anhydro-D-glucitol]
Amount of Protein, Mean S.D. (313 μg/mL sample): 9.38 ± 0.44 μg/well | Amount of Protein, Mean S.D. (625 μg/mL sample): 9.18 ± 0.46 μg/well | Amount of Protein, Mean S.D. (1250 μg/mL sample): 9.09 ± 0.31 μg/well
